Residue numbers refer to the chain shown, from its start. This is one part of the list. At the low end of the ranking, values are background and their order means little.
Assays:
Conditions in all cases: yeast three-hybrid, YBZ-1, SC-Leu-His + 0.5 mM 3-AT, 4 days
[1] = target: T1, PUM1 PUF domain R2-TFG N899T + Y900F + Q903G (UniProt Q14671)
T1 sequence: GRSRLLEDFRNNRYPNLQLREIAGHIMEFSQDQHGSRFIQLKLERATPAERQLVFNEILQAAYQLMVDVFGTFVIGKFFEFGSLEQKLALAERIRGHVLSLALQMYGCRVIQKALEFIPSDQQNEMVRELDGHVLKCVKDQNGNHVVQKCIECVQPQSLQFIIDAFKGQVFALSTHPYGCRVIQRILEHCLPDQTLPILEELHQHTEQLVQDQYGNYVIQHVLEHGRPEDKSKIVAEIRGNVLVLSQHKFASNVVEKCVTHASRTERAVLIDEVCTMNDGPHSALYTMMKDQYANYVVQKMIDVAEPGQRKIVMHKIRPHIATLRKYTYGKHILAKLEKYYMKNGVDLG

[2] = target: T2, PUM1 PUF domain R2-VFR N899V + Y900F + Q903R (UniProt Q14671)
T2 sequence: T1 sequence with T72V, G76R

[3] = target: T3, PUM1 PUF domain R2-VFV N899V + Y900F + Q903V (UniProt Q14671)
T3 sequence: T1 sequence with T72V, G76V

[4] = target: T4, PUM1 PUF domain R2-VHP N899V + Y900H + Q903P (UniProt Q14671)
T4 sequence: T1 sequence with T72V, F73H, G76P

[5] = target: T5, PUM1 PUF domain R2-VWP N899V + Y900W + Q903P (UniProt Q14671)
T5 sequence: T1 sequence with T72V, F73W, G76P

[6] = target: T6, PUM1 PUF domain R2-VWW N899V + Y900W + Q903W (UniProt Q14671)
T6 sequence: T1 sequence with T72V, F73W, G76W

[7] = target: T7, PUM1 PUF domain R2-VYP N899V + Q903P (UniProt Q14671)
T7 sequence: T1 sequence with T72V, F73Y, G76P

[8] = target: T8, PUM1 PUF domain R3-FSS C935F + R936S + Q939S (UniProt Q14671)
T8 sequence: T1 sequence with T72N, F73Y, G76Q, C108F, R109S, Q112S

[9] = target: T9, PUM1 PUF domain R3-GPE C935G + R936P + Q939E (UniProt Q14671)
T9 sequence: T1 sequence with T72N, F73Y, G76Q, C108G, R109P, Q112E

[10] = target: T10, PUM1 PUF domain R3-LCR C935L + R936C + Q939R (UniProt Q14671)
T10 sequence: T1 sequence with T72N, F73Y, G76Q, C108L, R109C, Q112R

[11] = target: T11, PUM1 PUF domain R3-RAG C935R + R936A + Q939G (UniProt Q14671)
T11 sequence: T1 sequence with T72N, F73Y, G76Q, C108R, R109A, Q112G

[12] = target: T12, PUM1 PUF domain R3-RAV C935R + R936A + Q939V (UniProt Q14671)
T12 sequence: T1 sequence with T72N, F73Y, G76Q, C108R, R109A, Q112V

[13] = target: T13, PUM1 PUF domain R3-RPH C935R + R936P + Q939H (UniProt Q14671)
T13 sequence: T1 sequence with T72N, F73Y, G76Q, C108R, R109P, Q112H

[14] = target: T14, PUM1 PUF domain R3-RRC C935R + Q939C (UniProt Q14671)
T14 sequence: T1 sequence with T72N, F73Y, G76Q, C108R, Q112C

[15] = target: T15, PUM1 PUF domain R3-RRL C935R + Q939L (UniProt Q14671)
T15 sequence: T1 sequence with T72N, F73Y, G76Q, C108R, Q112L

[16] = target: T16, PUM1 PUF domain R3-RRT C935R + Q939T (UniProt Q14671)
T16 sequence: T1 sequence with T72N, F73Y, G76Q, C108R, Q112T

[17] = target: T17, PUM1 PUF domain R3-RSV C935R + R936S + Q939V (UniProt Q14671)
T17 sequence: T1 sequence with T72N, F73Y, G76Q, C108R, R109S, Q112V

[18] = target: T18, PUM1 PUF domain R3-RTS C935R + R936T + Q939S (UniProt Q14671)
T18 sequence: T1 sequence with T72N, F73Y, G76Q, C108R, R109T, Q112S

[19] = target: T19, PUM1 PUF domain R3-RVQ C935R + R936V (UniProt Q14671)
T19 sequence: T1 sequence with T72N, F73Y, G76Q, C108R, R109V

[20] = target: T20, PUM1 PUF domain R3-SKL C935S + R936K + Q939L (UniProt Q14671)
T20 sequence: T1 sequence with T72N, F73Y, G76Q, C108S, R109K, Q112L

## GGCUAGAACUAGUGGAUCCCCCGGCGCCCGGCGGCUCGAGCCCGGGUAAGUGUAAAUAGUCUGCAUGCCGCCGGGCGCCAUGCCUGCAGGUCGACUCUAGAAAACAUG
[1]
  binding signal (log2 enrichment (interaction score)): < -6.65
[2]
  binding signal (log2 enrichment (interaction score)): < -7.53
[3]
  binding signal (log2 enrichment (interaction score)): < -6.55
[4]
  binding signal (log2 enrichment (interaction score)): < -7.86
[5]
  binding signal (log2 enrichment (interaction score)): < -9.04
[6]
  binding signal (log2 enrichment (interaction score)): < -6.77
[7]
  binding signal (log2 enrichment (interaction score)): < -7.39
[8]
  binding signal (log2 enrichment (interaction score)): < -8.9
[9]
  binding signal (log2 enrichment (interaction score)): -2.66
[10]
  binding signal (log2 enrichment (interaction score)): -2.51
[11]
  binding signal (log2 enrichment (interaction score)): -2.26
[12]
  binding signal (log2 enrichment (interaction score)): -2.61
[13]
  binding signal (log2 enrichment (interaction score)): -2.55
[14]
  binding signal (log2 enrichment (interaction score)): -2.34
[15]
  binding signal (log2 enrichment (interaction score)): -2.29
[16]
  binding signal (log2 enrichment (interaction score)): -2.06
[17]
  binding signal (log2 enrichment (interaction score)): -2
[18]
  binding signal (log2 enrichment (interaction score)): -2.35
[19]
  binding signal (log2 enrichment (interaction score)): < -8.04
[20]
  binding signal (log2 enrichment (interaction score)): -2.1
